Drawing on paper PMC4231747, this text covers binding for seven molecules.

The chains behind the UniProt entries cited, without tags or fusion partners.
UniProt P40160: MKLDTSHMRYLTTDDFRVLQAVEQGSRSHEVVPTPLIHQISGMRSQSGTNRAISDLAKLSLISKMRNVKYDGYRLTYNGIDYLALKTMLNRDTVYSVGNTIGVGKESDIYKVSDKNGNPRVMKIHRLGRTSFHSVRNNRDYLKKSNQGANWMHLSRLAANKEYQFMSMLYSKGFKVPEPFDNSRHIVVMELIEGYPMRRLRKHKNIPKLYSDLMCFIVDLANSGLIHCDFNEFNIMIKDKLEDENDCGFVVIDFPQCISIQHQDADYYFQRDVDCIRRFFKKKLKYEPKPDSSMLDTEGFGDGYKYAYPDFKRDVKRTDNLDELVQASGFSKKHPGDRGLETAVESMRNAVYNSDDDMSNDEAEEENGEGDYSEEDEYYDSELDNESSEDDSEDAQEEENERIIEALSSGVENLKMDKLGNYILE

Holding throughout (assay): affinity purification with mass spectrometry; pre-ribosomal particles purified from yeast by the tagged bait (Nob1-HTP, Pno1-TAP, Rio2-TAP, Rio1-TAP), fractionated on a Superose 6 gel filtration column; elution fractions 1-5 digested and analysed by LC-MS/MS
(SEC sorts molecules by how far they enter the pores of the column.)

The target in test [1] is T1, Pno1-TAP (S. cerevisiae), Q99216.
T1 chain: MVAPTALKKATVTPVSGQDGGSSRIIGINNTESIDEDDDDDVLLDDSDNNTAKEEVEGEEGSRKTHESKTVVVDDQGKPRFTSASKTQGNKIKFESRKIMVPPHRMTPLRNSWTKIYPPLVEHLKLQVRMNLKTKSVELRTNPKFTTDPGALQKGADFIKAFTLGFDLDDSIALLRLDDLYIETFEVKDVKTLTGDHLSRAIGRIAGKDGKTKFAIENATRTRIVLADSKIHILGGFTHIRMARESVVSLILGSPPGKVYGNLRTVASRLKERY
As to conditions: remark: other sources report otherwise.

In another test the target is Rio2-TAP (S. cerevisiae) (UniProt P40160).
For the next test, the target named is T2, Pno1-TAP (S. cerevisiae) (UniProt Q99216).
T2 sequence: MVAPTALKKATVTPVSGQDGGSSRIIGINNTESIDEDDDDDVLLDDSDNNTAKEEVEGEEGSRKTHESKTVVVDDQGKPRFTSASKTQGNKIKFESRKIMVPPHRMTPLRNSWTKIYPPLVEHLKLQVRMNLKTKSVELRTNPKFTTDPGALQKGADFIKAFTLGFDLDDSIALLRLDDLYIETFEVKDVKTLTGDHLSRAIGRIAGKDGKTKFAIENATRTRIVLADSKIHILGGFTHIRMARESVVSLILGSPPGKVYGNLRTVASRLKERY

Test [2] deals with T3, Nob1-HTP (S. cerevisiae), Q08444.
T3 chain: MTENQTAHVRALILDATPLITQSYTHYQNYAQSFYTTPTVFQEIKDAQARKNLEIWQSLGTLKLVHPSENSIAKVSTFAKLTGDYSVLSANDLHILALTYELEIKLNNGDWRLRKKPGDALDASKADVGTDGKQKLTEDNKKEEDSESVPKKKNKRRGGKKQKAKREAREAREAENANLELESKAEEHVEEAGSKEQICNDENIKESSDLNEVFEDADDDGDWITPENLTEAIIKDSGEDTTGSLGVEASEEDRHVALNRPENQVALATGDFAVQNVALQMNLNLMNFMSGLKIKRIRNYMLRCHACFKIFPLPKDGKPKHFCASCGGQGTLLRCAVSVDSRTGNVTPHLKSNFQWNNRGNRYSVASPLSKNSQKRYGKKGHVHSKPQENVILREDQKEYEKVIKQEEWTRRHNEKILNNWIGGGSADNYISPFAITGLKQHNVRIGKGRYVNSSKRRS
Conditions: remark: other sources report otherwise.

The next test deals with T4, Nob1-HTP (S. cerevisiae) (UniProt Q08444).
T4 sequence: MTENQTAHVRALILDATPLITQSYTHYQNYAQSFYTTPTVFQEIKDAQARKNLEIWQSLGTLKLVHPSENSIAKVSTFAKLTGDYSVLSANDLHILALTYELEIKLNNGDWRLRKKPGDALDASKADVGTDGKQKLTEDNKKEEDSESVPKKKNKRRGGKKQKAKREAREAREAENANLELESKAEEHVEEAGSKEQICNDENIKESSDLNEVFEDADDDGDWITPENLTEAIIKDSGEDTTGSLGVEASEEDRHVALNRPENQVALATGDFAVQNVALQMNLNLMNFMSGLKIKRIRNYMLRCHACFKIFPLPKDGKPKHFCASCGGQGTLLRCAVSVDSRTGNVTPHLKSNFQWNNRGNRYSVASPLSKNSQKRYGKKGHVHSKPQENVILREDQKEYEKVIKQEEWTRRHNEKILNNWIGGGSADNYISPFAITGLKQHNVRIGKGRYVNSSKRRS

Test [3] deals with T5, Rio1-TAP (S. cerevisiae), Q12196.
T5 chain: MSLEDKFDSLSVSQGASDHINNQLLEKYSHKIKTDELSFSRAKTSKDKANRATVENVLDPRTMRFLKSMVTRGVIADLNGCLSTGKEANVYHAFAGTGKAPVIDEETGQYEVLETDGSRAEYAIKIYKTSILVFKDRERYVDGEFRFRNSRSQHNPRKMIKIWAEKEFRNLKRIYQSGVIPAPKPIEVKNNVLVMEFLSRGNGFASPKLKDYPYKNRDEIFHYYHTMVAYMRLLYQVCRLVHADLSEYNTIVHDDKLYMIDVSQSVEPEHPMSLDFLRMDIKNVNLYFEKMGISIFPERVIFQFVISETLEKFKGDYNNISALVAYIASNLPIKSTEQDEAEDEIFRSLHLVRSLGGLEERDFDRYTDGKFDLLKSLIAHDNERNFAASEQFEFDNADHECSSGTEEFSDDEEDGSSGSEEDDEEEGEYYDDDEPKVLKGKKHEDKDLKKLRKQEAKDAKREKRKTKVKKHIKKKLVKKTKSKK
As to conditions: remark: other sources report otherwise.

These are yes or no findings as the source states them, for the method shown. In cells and extracts the contact can be indirect. A yes stands for co-enrichment or nearness to the bait. Other partners may have been found.

B1: Dim1, P41819 1-318 (protein)
chain: MGKAAKKKYSGATSSKQVSAEKHLSSVFKFNTDLGQHILKNPLVAQGIVDKAQIRPSDVVLEVGPGTGNLTVRILEQAKNVVAVEMDPRMAAELTKRVRGTPVEKKLEIMLGDFMKTELPYFDICISNTPYQISSPLVFKLINQPRPPRVSILMFQREFALRLLARPGDSLYCRLSANVQMWANVTHIMKVGKNNFRPPPQVESSVVRLEIKNPRPQVDYNEWDGLLRIVFVRKNRTISAGFKSTTVMDILEKNYKTFLAMNNEMVDDTKGSMHDVVKEKIDTVLKETDLGDKRAGKCDQNDFLRLLYAFHQVGIHFS
For the molecule B1, the binding result in test [1] is listed as “binds”.

B2: Tsr1 (protein, UniProt Q07381 1-788)
chain: MAGHSHRSSLKNGHKSYKSKHASKGALKRLYKGKVEKEPVGTGKPDKQVSKLQRKNKAKQLRAQRILDSIENRKLFEGKNGAAKIITIVPLVNDLDPLDILYKLLKCADDEGIMVQEVDSKRIFNVHIKKFKSNLKIIIPDMTNFLNILDCAKVADFVVFGLSGVQEVDEEFGEQIIRALELQGIASYIGVISNLSAVHEKEKFQLDVKQSLESYFKHFFPSEERVYNLEKNSDALNVLRTLCQRLPRSINWRDNRGYVVADFVDFVETSPDSGDLVIEGTVRGIGFNANRLVHIPDFGDFQLNKIEKISESSQKRKIIKEKATDSLSLELDLQTVFESNMNRDTLDEYAPEGTEDWSDYDEDFEYDGLTTARYDDHGFLPGREQTSKKAAVPKGTSDYQAKWYLDDVIDANEEEEAEQTNGKDETMMEIDDEMMVEQDNEEVAGDEEYDIEDNEGFEELSPEEEERQLREFRDMEKEDREFPDEIELEPSESAIERLKRYRGLKNLYNCDWQVDEKDPSSPAEWKRLLRIGNYKNTKNRIIKETKNEAQAIAGDRIRMFIRFPKFLLEKIQDPKQLLFAVYGLLLHEHKNAVVNFSLQRWEQYDKPVPSQEPIVVQYGVRRYTIQPLFSQGSNSPNNVHKYERFLHPDTVSVATCIAPVDFTQSPAIFFKPSPTDAKNIELIGHGTFLNADHSRILAKRAILTGHPFRFHKTVVTVRYMFFRPEDVEWFKSIPLFTKSGRSGFIKESLGTHGYFKATFDGKLSAQDVVAMSLYKRMWPMPSLPWNGM
As for B2, the binding result with Rio2-TAP (S. cerevisiae) and in the test with Pno1-TAP (S. cerevisiae) was “binds” throughout.

B3: Tsr1, Q07381 1-788 (protein)
chain: MAGHSHRSSLKNGHKSYKSKHASKGALKRLYKGKVEKEPVGTGKPDKQVSKLQRKNKAKQLRAQRILDSIENRKLFEGKNGAAKIITIVPLVNDLDPLDILYKLLKCADDEGIMVQEVDSKRIFNVHIKKFKSNLKIIIPDMTNFLNILDCAKVADFVVFGLSGVQEVDEEFGEQIIRALELQGIASYIGVISNLSAVHEKEKFQLDVKQSLESYFKHFFPSEERVYNLEKNSDALNVLRTLCQRLPRSINWRDNRGYVVADFVDFVETSPDSGDLVIEGTVRGIGFNANRLVHIPDFGDFQLNKIEKISESSQKRKIIKEKATDSLSLELDLQTVFESNMNRDTLDEYAPEGTEDWSDYDEDFEYDGLTTARYDDHGFLPGREQTSKKAAVPKGTSDYQAKWYLDDVIDANEEEEAEQTNGKDETMMEIDDEMMVEQDNEEVAGDEEYDIEDNEGFEELSPEEEERQLREFRDMEKEDREFPDEIELEPSESAIERLKRYRGLKNLYNCDWQVDEKDPSSPAEWKRLLRIGNYKNTKNRIIKETKNEAQAIAGDRIRMFIRFPKFLLEKIQDPKQLLFAVYGLLLHEHKNAVVNFSLQRWEQYDKPVPSQEPIVVQYGVRRYTIQPLFSQGSNSPNNVHKYERFLHPDTVSVATCIAPVDFTQSPAIFFKPSPTDAKNIELIGHGTFLNADHSRILAKRAILTGHPFRFHKTVVTVRYMFFRPEDVEWFKSIPLFTKSGRSGFIKESLGTHGYFKATFDGKLSAQDVVAMSLYKRMWPMPSLPWNGM
As for B3, the binding result in test [2] is listed as “binds”.

B4: Ltv1 (protein, UniProt P34078 1-463)
chain: MSKKFSSKNSQRYVVVHRPHDDPSFYDTDASAHVLVPVSNPNKTSPEADLRKKDVSSTKPKGRRAHVGEAALYGINFDDSEYDYTQHLKPIGLDPENSIFIASKGNEQKVEKKNIEDLFIEPKYRRDEIEKDDALPVFQRGMAKPEYLLHQQDTTDEIRGFKPDMNPALREVLEALEDEAYVVNDDVVVEDISKKTQLQGDNYGEEEKEDDIFAQLLGSGEAKDEDEFEDEFDEWDIDNVENFEDENYVKEMAQFDNIENLEDLENIDYQADVRRFQKDNSILEKHNSDDEFSNAGLDSVNPSEEEDVLGELPSIQDKSKTGKKKRKSRQKKGAMSDVSGFSMSSSAIARTETMTVLDDQYDQIINGYENYEEELEEDEEQNYQPFDMSAERSDFESMLDDFLDNYELESGGRKLAKKDKEIERLKEAADEVSKGKLSQRRNRERQEKKKLEKVTNTLSSLKF
B4: the binding entry in the test with Pno1-TAP (S. cerevisiae) was “binds”.

B5: Enp1 (protein, UniProt P38333 1-483)
chain: MARASSTKARKQRHDPLLKDLDAAQGTLKKINKKKLAQNDAANHDAANEEDGYIDSKASRKILQLAKEQQDEIEGEELAESERNKQFEARFTTMSYDDEDEDEDEDEEAFGEDISDFEPEGDYKEEEEIVEIDEEDAAMFEQYFKKSDDFNSLSGSYNLADKIMASIREKESQVEDMQDDEPLANEQNTSRGNISSGLKSGEGVALPEKVIKAYTTVGSILKTWTHGKLPKLFKVIPSLRNWQDVIYVTNPEEWSPHVVYEATKLFVSNLTAKESQKFINLILLERFRDNIETSEDHSLNYHIYRAVKKSLYKPSAFFKGFLFPLVETGCNVREATIAGSVLAKVSVPALHSSAALSYLLRLPFSPPTTVFIKILLDKKYALPYQTVDDCVYYFMRFRILDDGSNGEDATRVLPVIWHKAFLTFAQRYKNDITQDQRDFLLETVRQRGHKDIGPEIRRELLAGASREFVDPQEANDDLMIDVN
Take B5: the binding result with Rio2-TAP (S. cerevisiae), in the test with Pno1-TAP (S. cerevisiae) and with Nob1-HTP (S. cerevisiae) was “binds” in each case.

B6: Pno1, Q99216 1-274 (protein)
chain: MVAPTALKKATVTPVSGQDGGSSRIIGINNTESIDEDDDDDVLLDDSDNNTAKEEVEGEEGSRKTHESKTVVVDDQGKPRFTSASKTQGNKIKFESRKIMVPPHRMTPLRNSWTKIYPPLVEHLKLQVRMNLKTKSVELRTNPKFTTDPGALQKGADFIKAFTLGFDLDDSIALLRLDDLYIETFEVKDVKTLTGDHLSRAIGRIAGKDGKTKFAIENATRTRIVLADSKIHILGGFTHIRMARESVVSLILGSPPGKVYGNLRTVASRLKERY
In the case of B6, in test [3], the binding entry was “binds”.

B7: endogenous Nob1, Q08444 1-459 (enzyme)
chain: MTENQTAHVRALILDATPLITQSYTHYQNYAQSFYTTPTVFQEIKDAQARKNLEIWQSLGTLKLVHPSENSIAKVSTFAKLTGDYSVLSANDLHILALTYELEIKLNNGDWRLRKKPGDALDASKADVGTDGKQKLTEDNKKEEDSESVPKKKNKRRGGKKQKAKREAREAREAENANLELESKAEEHVEEAGSKEQICNDENIKESSDLNEVFEDADDDGDWITPENLTEAIIKDSGEDTTGSLGVEASEEDRHVALNRPENQVALATGDFAVQNVALQMNLNLMNFMSGLKIKRIRNYMLRCHACFKIFPLPKDGKPKHFCASCGGQGTLLRCAVSVDSRTGNVTPHLKSNFQWNNRGNRYSVASPLSKNSQKRYGKKGHVHSKPQENVILREDQKEYEKVIKQEEWTRRHNEKILNNWIGGGSADNYISPFAITGLKQHNVRIGKGRYVNSSKRRS
On to B7, for which the binding entry in test [3] was “binds”.
